Test results: paper PMC3660578
Results are given in words; binding and its absence hold for the method and conditions named. Binding seen in cells or lysates may run through a third protein. These calls come from enrichment with a bait or labelling near it, and not all partners need be listed. No binding means not detected with the bait.

Sequences of proteins named here, by UniProt entry; tags and fusion partners are left off.
UniProt Q8NFW8: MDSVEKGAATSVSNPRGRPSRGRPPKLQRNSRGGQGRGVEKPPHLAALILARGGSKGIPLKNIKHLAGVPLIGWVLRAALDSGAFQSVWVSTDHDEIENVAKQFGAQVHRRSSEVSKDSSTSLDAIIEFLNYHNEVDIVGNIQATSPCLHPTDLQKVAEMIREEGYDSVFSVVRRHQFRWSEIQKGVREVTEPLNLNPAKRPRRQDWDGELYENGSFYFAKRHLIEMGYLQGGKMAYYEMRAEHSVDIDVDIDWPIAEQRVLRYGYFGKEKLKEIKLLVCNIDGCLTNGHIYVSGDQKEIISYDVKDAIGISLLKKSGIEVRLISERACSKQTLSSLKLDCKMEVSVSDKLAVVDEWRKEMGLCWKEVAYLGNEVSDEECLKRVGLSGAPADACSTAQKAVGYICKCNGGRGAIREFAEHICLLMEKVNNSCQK

T1: Adipophilin (human (endogenous in PLC)) (UniProt Q99541)
T1 sequence: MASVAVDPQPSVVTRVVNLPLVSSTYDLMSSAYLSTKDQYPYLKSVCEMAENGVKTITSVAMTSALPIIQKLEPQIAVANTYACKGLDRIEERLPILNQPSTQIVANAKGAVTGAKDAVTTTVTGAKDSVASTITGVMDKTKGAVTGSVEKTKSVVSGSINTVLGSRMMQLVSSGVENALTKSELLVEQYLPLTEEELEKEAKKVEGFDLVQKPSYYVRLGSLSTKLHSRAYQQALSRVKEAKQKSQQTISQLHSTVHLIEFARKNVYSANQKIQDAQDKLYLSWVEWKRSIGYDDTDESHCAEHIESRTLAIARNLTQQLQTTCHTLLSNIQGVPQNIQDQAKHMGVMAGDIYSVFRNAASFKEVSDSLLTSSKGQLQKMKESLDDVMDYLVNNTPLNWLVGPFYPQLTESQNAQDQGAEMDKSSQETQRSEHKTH

T2: TIP47 (human (endogenous in PLC)) (UniProt O60664)
T2 sequence: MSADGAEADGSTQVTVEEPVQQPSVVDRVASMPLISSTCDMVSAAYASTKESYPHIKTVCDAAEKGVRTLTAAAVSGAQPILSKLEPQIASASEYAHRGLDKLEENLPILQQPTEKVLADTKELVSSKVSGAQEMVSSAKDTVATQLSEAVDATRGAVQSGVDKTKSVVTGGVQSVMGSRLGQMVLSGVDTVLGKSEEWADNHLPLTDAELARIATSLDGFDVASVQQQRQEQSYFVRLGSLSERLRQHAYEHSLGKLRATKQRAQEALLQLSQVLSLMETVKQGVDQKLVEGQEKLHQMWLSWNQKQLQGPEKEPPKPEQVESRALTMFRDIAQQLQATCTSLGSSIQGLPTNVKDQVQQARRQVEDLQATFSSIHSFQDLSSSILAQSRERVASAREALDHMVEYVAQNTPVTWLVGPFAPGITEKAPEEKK

B1: Cytokeratin 18 (protein, UniProt P05783 1-430)
chain: MSFTTRSTFSTNYRSLGSVQAPSYGARPVSSAASVYAGAGGSGSRISVSRSTSFRGGMGSGGLATGIAGGLAGMGGIQNEKETMQSLNDRLASYLDRVRSLETENRRLESKIREHLEKKGPQVRDWSHYFKIIEDLRAQIFANTVDNARIVLQIDNARLAADDFRVKYETELAMRQSVENDIHGLRKVIDDTNITRLQLETEIEALKEELLFMKKNHEEEVKGLQAQIASSGLTVEVDAPKSQDLAKIMADIRAQYDELARKNREELDKYWSQQIEESTTVVTTQSAEVGAAETTLTELRRTVQSLEIDLDSMRNLKASLENSLREVEARYALQMEQLNGILLHLESELAQTRAEGQRQAQEYEALLNIKVKLEAEIATYRRLLEDGEDFNLGDALDSSNSMQTIQKTTTRRIVDGKVVSETNDTKVLRH
B2: AUP1 homolog protein (protein, UniProt Q9Y679 1-410)
chain: MELPSGPGPERLFDSHRLPGDCFLLLVLLLYAPVGFCLLVLRLFLGIHVFLVSCALPDSVLRRFVVRTMCAVLGLVARQEDSGLRDHSVRVLISNHVTPFDHNIVNLLTTCSTPLLNSPPSFVCWSRGFMEMNGRGELVESLKRFCASTRLPPTPLLLFPEEEATNGREGLLRFSSWPFSIQDVVQPLTLQVQRPLVSVTVSDASWVSELLWSLFVPFTVYQVRWLRPVHRQLGEANEEFALRVQQLVAKELGQTGTRLTPADKAEHMKRQRHPRLRPQSAQSSFPPSPGPSPDVQLATLAQRVKEVLPHVPLGVIQRDLAKTGCVDLTITNLLEGAVAFMPEDITKGTQSLPTASASKFPSSGPVTPQPTALTFAKSSWARQESLQERKQALYEYARRRFTERRAQEAD
B3: delta-7-sterol reductase (enzyme, UniProt Q9UBM7 1-475)
chain: MAAKSQPNIPKAKSLDGVTNDRTASQGQWGRAWEVDWFSLASVIFLLLFAPFIVYYFIMACDQYSCALTGPVVDIVTGHARLSDIWAKTPPITRKAAQLYTLWVTFQVLLYTSLPDFCHKFLPGYVGGIQEGAVTPAGVVNKYQINGLQAWLLTHLLWFANAHLLSWFSPTIIFDNWIPLLWCANILGYAVSTFAMVKGYFFPTSARDCKFTGNFFYNYMMGIEFNPRIGKWFDFKLFFNGRPGIVAWTLINLSFAAKQRELHSHVTNAMVLVNVLQAIYVIDFFWNETWYLKTIDICHDHFGWYLGWGDCVWLPYLYTLQGLYLVYHPVQLSTPHAVGVLLLGLVGYYIFRVANHQKDLFRRTDGRCLIWGRKPKVIECSYTSADGQRHHSKLLVSGFWGVARHFNYVGDLMGSLAYCLACGGGHLLPYFYIIYMAILLTHRCLRDEHRCASKYGRDWERYTAAVPYRLLPGIF
B4: delta-24-sterol reductase (enzyme, UniProt Q15392 23-516)
chain: LEFVLIHQRWVFVCLFLLPLSLIFDIYYYVRAWVVFKLSSAPRLHEQRVRDIQKQVREWKEQGSKTFMCTGRPGWLTVSLRVGKYKKTHKNIMINLMDILEVDTKKQIVRVEPLVTMGQVTALLTSIGWTLPVLPELDDLTVGGLIMGTGIESSSHKYGLFQHICTAYELVLADGSFVRCTPSENSDLFYAVPWSCGTLGFLVAAEIRIIPAKKYVKLRFEPVRGLEAICAKFTHESQRQENHFVEGLLYSLDEAVIMTGVMTDEAEPSKLNSIGNYYKPWFFKHVENYLKTNREGLEYIPLRHYYHRHTRSIFWELQDIIPFGNNPIFRYLFGWMVPPKISLLKLTQGETLRKLYEQHHVVQDMLVPMKCLQQALHTFQNDIHVYPIWLCPFILPSQPGLVHPKGNEAELYIDIGAYGEPRVKHFEARSCMRQLEKFVRSVHGFQMLYADCYMNREEFWEMFDGSLYHKLREKLGCQDAFPEVYDKICKAARH

Each molecule was assayed against T1, Adipophilin (human (endogenous in PLC)) (assay: affinity purification with mass spectrometry; immunoprecipitation from density gradient fractions LD1, LD2 and LD3 of oleic acid treated PLC cells, methanol precipitated and dissolved in RIPA buffer; mabs TIP47, MLDP-382, AP125 and control VE-cadherin on protein A or G magnetic beads, overnight at 4°C; SDS-PAGE, silver staining, nanoLC-ESI-MS/MS of bands).

Question: With tubulin (human (endogenous in PLC)) as the molecule, how does the binding read?
Answer: The binding was “no binding”.

Question: How did the binding turn out when B1 was run?
Answer: Its binding is “binds”.

Question: With B2 as the molecule, how does the binding read?
Answer: The binding was “binds”.

The molecules below were run against T2, TIP47 (human (endogenous in PLC)) in the same assay as above.

Question: Which binding does the source give for “fatty acyl-CoA reductase (human (endogenous in PLC)) (enzyme)” here?
Answer: Its binding is “binds”.

Question: Which binding does the source give for “sterol-regulatory element binding protein 3 (SREBP-3) (human (endogenous in PLC))” here?
Answer: Its binding is “binds”.

Question: Which binding does the source give for tubulin (human (endogenous in PLC)) here?
Answer: The binding was “no binding”.

Question: Which binding does the source give for “serine palmitoyl transferase (human (endogenous in PLC)) (enzyme)” here?
Answer: The binding was “binds”.

Question: For Clathrin (human (endogenous in PLC)), which binding is on record?
Answer: The binding was “binds”.

Question: With “N-acylneuraminate cytidylyltransferase (from UniProt Q8NFW8 1-434) (enzyme)” as the molecule, how does the binding read?
Answer: Its binding is “binds”.

Question: With B3 as the molecule, how does the binding read?
Answer: The binding was “binds”.

Question: For B2, which binding is on record?
Answer: The binding was “binds”.

Question: Which binding does the source give for B4 here?
Answer: The binding was “binds”.
